# According to the supplement of paper PMC10060354, “Discovery of a small molecule ligand of FRS2 that inhibits invasion and tumor growth” (Cellular Oncology, 2022):
# Sequences of proteins named here, by UniProt entry; tags and fusion partners are left off. A change or cut given only in a name is not applied to a line headed by its entry.
# UniProt Q9BTE3: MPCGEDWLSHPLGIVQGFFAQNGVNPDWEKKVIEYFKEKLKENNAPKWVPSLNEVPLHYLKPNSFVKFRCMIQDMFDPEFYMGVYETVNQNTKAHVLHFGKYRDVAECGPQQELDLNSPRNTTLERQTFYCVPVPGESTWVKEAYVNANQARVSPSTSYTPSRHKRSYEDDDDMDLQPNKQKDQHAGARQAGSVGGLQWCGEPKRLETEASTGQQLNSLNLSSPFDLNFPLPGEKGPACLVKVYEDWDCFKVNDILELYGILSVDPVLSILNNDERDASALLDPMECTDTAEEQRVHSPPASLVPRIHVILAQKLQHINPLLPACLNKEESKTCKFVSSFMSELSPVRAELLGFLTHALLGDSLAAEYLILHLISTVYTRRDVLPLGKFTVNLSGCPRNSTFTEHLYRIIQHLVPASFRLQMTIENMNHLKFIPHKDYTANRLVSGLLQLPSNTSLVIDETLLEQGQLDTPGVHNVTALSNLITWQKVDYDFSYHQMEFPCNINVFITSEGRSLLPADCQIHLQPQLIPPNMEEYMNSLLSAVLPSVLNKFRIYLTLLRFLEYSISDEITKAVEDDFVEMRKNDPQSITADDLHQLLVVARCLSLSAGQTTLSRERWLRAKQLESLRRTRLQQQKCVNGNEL
# UniProt Q12802: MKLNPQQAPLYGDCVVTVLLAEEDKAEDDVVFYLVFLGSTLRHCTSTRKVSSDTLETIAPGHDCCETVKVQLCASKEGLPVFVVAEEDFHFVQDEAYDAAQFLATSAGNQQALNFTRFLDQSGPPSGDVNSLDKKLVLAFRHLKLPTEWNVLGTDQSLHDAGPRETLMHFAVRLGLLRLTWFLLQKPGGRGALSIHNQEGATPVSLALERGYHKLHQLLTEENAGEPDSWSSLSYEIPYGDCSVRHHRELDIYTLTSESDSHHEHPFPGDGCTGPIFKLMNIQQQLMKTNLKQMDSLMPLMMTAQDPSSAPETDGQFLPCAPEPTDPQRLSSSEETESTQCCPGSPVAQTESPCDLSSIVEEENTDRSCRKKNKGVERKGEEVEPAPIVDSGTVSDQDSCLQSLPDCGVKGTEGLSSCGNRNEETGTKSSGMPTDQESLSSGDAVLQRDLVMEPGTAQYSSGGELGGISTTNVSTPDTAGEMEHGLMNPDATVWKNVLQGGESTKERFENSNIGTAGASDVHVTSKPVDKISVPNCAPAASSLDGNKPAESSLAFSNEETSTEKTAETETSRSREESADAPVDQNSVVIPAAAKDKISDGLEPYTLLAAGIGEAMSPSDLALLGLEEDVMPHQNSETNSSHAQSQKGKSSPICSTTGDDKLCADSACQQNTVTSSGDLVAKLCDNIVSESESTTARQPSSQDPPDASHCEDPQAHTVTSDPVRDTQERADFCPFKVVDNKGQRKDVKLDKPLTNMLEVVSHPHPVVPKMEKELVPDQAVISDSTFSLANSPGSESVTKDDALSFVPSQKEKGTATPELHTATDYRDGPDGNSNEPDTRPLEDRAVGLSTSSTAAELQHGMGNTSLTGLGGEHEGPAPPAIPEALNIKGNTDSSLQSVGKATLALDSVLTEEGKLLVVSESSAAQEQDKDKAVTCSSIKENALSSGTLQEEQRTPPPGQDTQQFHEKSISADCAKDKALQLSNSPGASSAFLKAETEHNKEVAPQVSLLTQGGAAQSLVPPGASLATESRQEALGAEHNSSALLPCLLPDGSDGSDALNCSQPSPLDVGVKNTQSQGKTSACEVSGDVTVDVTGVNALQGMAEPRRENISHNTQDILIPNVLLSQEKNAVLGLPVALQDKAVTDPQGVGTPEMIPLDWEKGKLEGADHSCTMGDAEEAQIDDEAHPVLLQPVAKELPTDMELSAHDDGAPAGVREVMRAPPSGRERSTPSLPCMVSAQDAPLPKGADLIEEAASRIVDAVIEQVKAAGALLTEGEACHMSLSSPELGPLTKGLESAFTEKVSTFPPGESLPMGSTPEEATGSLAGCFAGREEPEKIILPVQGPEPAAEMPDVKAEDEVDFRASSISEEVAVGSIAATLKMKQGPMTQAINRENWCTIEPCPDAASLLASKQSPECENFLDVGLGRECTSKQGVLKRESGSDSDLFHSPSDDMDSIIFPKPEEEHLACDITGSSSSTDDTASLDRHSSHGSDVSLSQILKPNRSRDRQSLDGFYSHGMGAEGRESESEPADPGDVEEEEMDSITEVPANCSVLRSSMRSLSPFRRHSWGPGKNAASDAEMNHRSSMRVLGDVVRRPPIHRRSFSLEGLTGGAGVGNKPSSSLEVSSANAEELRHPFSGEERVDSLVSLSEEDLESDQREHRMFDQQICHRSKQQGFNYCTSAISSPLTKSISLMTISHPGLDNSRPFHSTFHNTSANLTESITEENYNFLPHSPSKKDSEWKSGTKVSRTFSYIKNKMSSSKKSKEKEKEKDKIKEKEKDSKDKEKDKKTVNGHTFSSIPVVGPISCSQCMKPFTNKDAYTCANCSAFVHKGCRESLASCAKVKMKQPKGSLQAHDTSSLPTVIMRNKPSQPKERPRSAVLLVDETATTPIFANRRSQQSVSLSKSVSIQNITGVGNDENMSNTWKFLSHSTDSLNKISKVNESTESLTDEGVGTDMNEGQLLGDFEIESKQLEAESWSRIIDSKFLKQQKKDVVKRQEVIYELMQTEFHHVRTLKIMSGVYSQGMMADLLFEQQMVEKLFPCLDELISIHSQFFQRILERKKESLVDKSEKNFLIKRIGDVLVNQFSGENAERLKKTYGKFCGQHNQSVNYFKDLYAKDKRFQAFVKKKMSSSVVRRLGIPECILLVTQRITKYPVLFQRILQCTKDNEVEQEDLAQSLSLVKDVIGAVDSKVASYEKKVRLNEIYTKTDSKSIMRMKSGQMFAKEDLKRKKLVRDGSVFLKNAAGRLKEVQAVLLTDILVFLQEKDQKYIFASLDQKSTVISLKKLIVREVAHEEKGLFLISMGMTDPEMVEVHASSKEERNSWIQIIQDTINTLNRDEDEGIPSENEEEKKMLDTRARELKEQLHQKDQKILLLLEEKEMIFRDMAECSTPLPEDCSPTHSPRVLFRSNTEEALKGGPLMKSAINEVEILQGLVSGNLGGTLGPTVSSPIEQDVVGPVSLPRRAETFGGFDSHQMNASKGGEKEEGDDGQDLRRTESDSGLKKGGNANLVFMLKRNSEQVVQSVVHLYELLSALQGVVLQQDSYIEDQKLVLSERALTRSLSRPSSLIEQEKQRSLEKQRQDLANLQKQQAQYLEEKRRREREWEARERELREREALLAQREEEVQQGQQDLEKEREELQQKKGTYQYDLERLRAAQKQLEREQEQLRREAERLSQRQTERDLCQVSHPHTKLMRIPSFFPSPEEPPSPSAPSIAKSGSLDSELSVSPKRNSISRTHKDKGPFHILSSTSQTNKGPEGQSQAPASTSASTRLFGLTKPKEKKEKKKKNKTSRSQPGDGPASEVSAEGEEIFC
# UniProt P23919: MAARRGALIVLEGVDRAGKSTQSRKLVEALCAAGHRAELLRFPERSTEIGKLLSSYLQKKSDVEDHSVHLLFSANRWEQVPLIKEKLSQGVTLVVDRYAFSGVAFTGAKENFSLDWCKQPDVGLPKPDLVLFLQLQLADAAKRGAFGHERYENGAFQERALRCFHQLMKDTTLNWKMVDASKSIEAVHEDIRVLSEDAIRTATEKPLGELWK
# UniProt P30291: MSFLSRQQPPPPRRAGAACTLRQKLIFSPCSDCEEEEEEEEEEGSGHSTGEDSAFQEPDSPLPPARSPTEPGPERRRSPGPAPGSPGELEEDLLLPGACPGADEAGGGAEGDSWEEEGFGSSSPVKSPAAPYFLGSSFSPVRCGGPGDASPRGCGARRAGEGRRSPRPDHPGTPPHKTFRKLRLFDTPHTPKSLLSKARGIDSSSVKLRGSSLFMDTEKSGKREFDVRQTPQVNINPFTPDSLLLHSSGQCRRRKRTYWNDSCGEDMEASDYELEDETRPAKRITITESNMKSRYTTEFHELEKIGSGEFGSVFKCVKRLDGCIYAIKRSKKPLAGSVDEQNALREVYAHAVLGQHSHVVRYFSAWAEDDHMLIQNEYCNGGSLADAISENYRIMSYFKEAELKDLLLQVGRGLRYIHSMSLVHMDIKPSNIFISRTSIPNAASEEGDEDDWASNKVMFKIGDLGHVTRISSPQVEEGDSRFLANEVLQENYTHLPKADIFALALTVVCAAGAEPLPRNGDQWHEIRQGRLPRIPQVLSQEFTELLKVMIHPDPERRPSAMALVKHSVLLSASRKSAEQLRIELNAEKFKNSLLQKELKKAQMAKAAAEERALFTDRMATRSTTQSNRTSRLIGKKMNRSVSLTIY
# UniProt Q9NS00: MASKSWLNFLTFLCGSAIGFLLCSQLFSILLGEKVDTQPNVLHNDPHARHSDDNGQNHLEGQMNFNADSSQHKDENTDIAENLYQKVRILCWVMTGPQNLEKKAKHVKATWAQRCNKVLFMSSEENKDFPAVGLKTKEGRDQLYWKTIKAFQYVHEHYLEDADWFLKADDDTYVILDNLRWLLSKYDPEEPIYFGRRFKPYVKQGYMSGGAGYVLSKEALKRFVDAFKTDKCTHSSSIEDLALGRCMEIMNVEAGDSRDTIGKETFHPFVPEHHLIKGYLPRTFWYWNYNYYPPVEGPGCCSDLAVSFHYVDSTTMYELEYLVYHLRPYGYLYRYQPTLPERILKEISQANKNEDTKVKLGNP
# UniProt Q8TDD1, whole entry: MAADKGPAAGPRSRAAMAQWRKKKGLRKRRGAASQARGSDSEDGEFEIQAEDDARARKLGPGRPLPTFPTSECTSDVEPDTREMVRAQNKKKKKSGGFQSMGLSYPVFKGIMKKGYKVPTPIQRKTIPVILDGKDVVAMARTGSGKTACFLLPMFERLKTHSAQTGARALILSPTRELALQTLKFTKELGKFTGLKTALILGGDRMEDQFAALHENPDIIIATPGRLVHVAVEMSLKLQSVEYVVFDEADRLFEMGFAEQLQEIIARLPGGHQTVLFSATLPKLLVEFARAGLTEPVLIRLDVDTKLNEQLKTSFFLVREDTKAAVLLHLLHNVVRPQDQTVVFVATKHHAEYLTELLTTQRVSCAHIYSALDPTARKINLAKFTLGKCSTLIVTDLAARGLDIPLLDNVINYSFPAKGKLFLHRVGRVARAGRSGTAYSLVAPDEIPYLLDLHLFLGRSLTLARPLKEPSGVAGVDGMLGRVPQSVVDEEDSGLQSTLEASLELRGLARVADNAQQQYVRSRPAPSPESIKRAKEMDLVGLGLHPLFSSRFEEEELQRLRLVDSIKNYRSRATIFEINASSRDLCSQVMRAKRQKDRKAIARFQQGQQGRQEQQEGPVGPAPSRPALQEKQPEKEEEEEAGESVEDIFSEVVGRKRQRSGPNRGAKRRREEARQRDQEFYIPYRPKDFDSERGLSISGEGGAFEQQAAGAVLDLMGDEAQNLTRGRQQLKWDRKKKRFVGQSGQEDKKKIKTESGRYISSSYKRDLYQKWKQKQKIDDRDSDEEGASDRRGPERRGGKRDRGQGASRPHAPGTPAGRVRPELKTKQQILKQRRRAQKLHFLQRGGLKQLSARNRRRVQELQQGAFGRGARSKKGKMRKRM
# UniProt Q5T1C6: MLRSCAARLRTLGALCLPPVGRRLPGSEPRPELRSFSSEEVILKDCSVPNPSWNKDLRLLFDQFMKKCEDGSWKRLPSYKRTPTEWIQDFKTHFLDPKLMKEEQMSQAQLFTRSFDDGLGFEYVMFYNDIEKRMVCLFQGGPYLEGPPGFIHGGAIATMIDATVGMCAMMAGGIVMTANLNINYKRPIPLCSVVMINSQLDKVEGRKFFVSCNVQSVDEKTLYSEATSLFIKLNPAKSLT
# UniProt A6NKH3: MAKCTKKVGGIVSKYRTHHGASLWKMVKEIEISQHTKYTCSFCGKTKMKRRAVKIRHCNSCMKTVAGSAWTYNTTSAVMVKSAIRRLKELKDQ
# UniProt Q96JB8: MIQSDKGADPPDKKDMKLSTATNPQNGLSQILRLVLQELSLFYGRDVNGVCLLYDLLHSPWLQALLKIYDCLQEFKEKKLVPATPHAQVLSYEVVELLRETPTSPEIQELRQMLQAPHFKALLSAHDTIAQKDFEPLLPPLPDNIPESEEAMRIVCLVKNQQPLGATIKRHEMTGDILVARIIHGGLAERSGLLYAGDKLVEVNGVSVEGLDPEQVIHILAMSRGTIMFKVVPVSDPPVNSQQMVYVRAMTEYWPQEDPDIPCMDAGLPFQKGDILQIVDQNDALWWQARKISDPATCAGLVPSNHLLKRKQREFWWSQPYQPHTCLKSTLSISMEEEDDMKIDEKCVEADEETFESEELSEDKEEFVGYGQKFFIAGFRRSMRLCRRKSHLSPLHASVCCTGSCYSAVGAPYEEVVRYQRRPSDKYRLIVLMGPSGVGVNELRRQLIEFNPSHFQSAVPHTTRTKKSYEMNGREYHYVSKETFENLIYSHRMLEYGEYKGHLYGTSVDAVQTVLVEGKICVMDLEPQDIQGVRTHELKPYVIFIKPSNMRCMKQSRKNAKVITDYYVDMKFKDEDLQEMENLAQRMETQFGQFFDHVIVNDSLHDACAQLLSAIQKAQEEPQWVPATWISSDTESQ
# Single values are uncertain, as repeats are few or missing.
# Compound: [O-][N+](C(C1=C(C(O)=C2)NC(C(C=C3)=CC=C3Cl)C4C1C=CC4)=C2Cl)=O
# Assay: melting temperature shift (compound 7 minus DMSO); higher = compound stabilises the protein
# Conditions: 10 µM
# Procedure: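 Thermal proteome profiling (TMT mass spectrometry) in intact DAOY medulloblastoma cells or DAOY lysates treated with 10 µM compound 7 or DMSO, heated at 10 temperatures from 40.5 to 73.8 °C for 3 min. Melting curves were fitted with the Bioconductor TPP package, and the melting point difference between compound and vehicle is reported per protein (single curve per condition).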
# [1] = system: DAOY cell lysate, treatment time: 20 min, 4 °C
# [2] = system: intact DAOY cells, treatment time: 90 min, 37 °C
target,measurement,setting,value
MCMBP (UniProt Q9BTE3),melting temperature shift,[1],-0.552 °C
same,melting temperature shift,[2],-0.134 °C
AKAP13 (UniProt Q12802),melting temperature shift,[1],-0.912 °C
same,melting temperature shift,[2],-0.701 °C
UniProt A6NGH7,melting temperature shift,[2],-2.34 °C
SCYL2 (UniProt Q6P3W7),melting temperature shift,[1],-0.569 °C
same,melting temperature shift,[2],-0.0609 °C
NUDCD2 (UniProt Q8WVJ2),melting temperature shift,[1],0.683 °C
same,melting temperature shift,[2],-0.117 °C
UniProt Q8N2Y8,melting temperature shift,[1],2.58 °C
UniProt Q5U5Q3,melting temperature shift,[1],3.83 °C
CHD1L (UniProt Q86WJ1),melting temperature shift,[1],-0.665 °C
same,melting temperature shift,[2],-1.04 °C
RAB29 (UniProt O14966),melting temperature shift,[1],-1.45 °C
same,melting temperature shift,[2],-1.16 °C
SCAMP2 (UniProt O15127),melting temperature shift,[1],0.828 °C
same,melting temperature shift,[2],6.37 °C
DTYMK (UniProt P23919),melting temperature shift,[1],-0.858 °C
same,melting temperature shift,[2],-3.04 °C
UniProt Q8WXX0,melting temperature shift,[1],0.333 °C
WEE1 (UniProt P30291),melting temperature shift,[1],-0.76 °C
CD276 (UniProt Q5ZPR3),melting temperature shift,[1],1.79 °C
UniProt Q02388,melting temperature shift,[1],-1.58 °C
same,melting temperature shift,[2],-2.72 °C
UniProt Q9NVR2,melting temperature shift,[1],1.62 °C
same,melting temperature shift,[2],1.79 °C
MCC (UniProt P23508),melting temperature shift,[1],0.963 °C
C1GALT1 (UniProt Q9NS00),melting temperature shift,[1],0.175 °C
UniProt Q9BRR8,melting temperature shift,[1],-0.682 °C
RPS18 (UniProt P62269),melting temperature shift,[1],-0.331 °C
same,melting temperature shift,[2],-1.01 °C
FRG1 (UniProt Q14331),melting temperature shift,[1],-0.601 °C
SGPP1 (UniProt Q9BX95),melting temperature shift,[1],2.13 °C
same,melting temperature shift,[2],-2.39 °C
SSB (UniProt P05455),melting temperature shift,[1],-0.12 °C
same,melting temperature shift,[2],0.0869 °C
UniProt Q92614,melting temperature shift,[1],-1.51 °C
SYNJ2BP (UniProt P57105),melting temperature shift,[1],0.166 °C
same,melting temperature shift,[2],-0.78 °C
WFS1 (UniProt O76024),melting temperature shift,[1],0.407 °C
same,melting temperature shift,[2],-0.807 °C
BCR (UniProt P11274),melting temperature shift,[1],-3.31 °C
RNF121 (UniProt Q9H920),melting temperature shift,[2],-0.598 °C
UniProt O15083,melting temperature shift,[2],-3.13 °C
UniProt P13591,melting temperature shift,[1],2.48 °C
OXA1L (UniProt Q15070),melting temperature shift,[1],0.417 °C
same,melting temperature shift,[2],0.476 °C
DDX21 (UniProt Q9NR30),melting temperature shift,[1],0.842 °C
same,melting temperature shift,[2],-0.321 °C
QKI (UniProt Q96PU8),melting temperature shift,[1],-0.0993 °C
same,melting temperature shift,[2],-0.905 °C
PAG1 (UniProt Q9NWQ8),melting temperature shift,[1],-3.71 °C
EDC3 (UniProt Q96F86),melting temperature shift,[1],-0.512 °C
same,melting temperature shift,[2],0.0898 °C
ASF1B (UniProt Q9NVP2),melting temperature shift,[1],-0.191 °C
same,melting temperature shift,[2],1.71 °C
NDUFB10 (UniProt O96000),melting temperature shift,[1],1.6 °C
same,melting temperature shift,[2],-0.45 °C
AHCYL1 (UniProt O43865),melting temperature shift,[1],-0.238 °C
same,melting temperature shift,[2],0.107 °C
BSDC1 (UniProt Q9NW68),melting temperature shift,[1],2.42 °C
same,melting temperature shift,[2],0.356 °C
UniProt Q05639,melting temperature shift,[1],-0.504 °C
same,melting temperature shift,[2],-0.29 °C
WAPL (UniProt Q7Z5K2),melting temperature shift,[1],-0.289 °C
same,melting temperature shift,[2],-0.642 °C
UniProt P23141,melting temperature shift,[1],0.208 °C
same,melting temperature shift,[2],3.15 °C
ZYG11B (UniProt Q9C0D3),melting temperature shift,[1],-1.27 °C
same,melting temperature shift,[2],-0.665 °C
SLK (UniProt Q9H2G2),melting temperature shift,[1],-0.246 °C
same,melting temperature shift,[2],0.118 °C
EPN2 (UniProt O95208),melting temperature shift,[1],-0.392 °C
same,melting temperature shift,[2],-1.83 °C
UniProt O43423,melting temperature shift,[2],0.363 °C
UniProt P15336,melting temperature shift,[2],0.628 °C
TRAP1 (UniProt Q12931),melting temperature shift,[1],0.464 °C
same,melting temperature shift,[2],-1.65 °C
AAR2 (UniProt Q9Y312),melting temperature shift,[1],-0.134 °C
same,melting temperature shift,[2],-0.686 °C
UniProt P46734,melting temperature shift,[1],-0.38 °C
same,melting temperature shift,[2],-1.54 °C
ARL14EP (UniProt Q8N8R7),melting temperature shift,[1],-0.569 °C
DDX54 (UniProt Q8TDD1),melting temperature shift,[1],0.32 °C
UGP2 (UniProt Q16851),melting temperature shift,[1],-0.53 °C
same,melting temperature shift,[2],-0.506 °C
MRPS28 (UniProt Q9Y2Q9),melting temperature shift,[1],0.841 °C
same,melting temperature shift,[2],-0.687 °C
RNF219 (UniProt Q5W0B1),melting temperature shift,[1],-0.12 °C
same,melting temperature shift,[2],-4.94 °C
CAMSAP1 (UniProt Q5T5Y3),melting temperature shift,[1],-0.742 °C
same,melting temperature shift,[2],-1.46 °C
UniProt P59190,melting temperature shift,[2],-1.68 °C
TIPRL (UniProt O75663),melting temperature shift,[1],0.0587 °C
same,melting temperature shift,[2],0.146 °C
UniProt Q15019,melting temperature shift,[1],-1.14 °C
same,melting temperature shift,[2],0.331 °C
CNOT2 (UniProt Q9NZN8),melting temperature shift,[1],-0.433 °C
same,melting temperature shift,[2],-1.02 °C
GMFB (UniProt P60983),melting temperature shift,[1],-0.0803 °C
same,melting temperature shift,[2],-1.27 °C
UniProt Q9UNP4,melting temperature shift,[1],1.34 °C
same,melting temperature shift,[2],1.72 °C
MKL2 (UniProt Q9ULH7),melting temperature shift,[1],-4.33 °C
same,melting temperature shift,[2],-2.35 °C
DLAT (UniProt P10515),melting temperature shift,[1],0.815 °C
same,melting temperature shift,[2],0.239 °C
RNGTT (UniProt O60942),melting temperature shift,[1],-1.03 °C
same,melting temperature shift,[2],-0.708 °C
ATF6 (UniProt P18850),melting temperature shift,[2],-0.438 °C
LMAN1 (UniProt P49257),melting temperature shift,[1],1.45 °C
same,melting temperature shift,[2],-0.117 °C
BRAF (UniProt P15056),melting temperature shift,[1],-0.984 °C
same,melting temperature shift,[2],-0.232 °C
UniProt Q58FF7,melting temperature shift,[2],-0.393 °C
LIG3 (UniProt P49916),melting temperature shift,[1],-0.676 °C
same,melting temperature shift,[2],-0.215 °C
CEP55 (UniProt Q53EZ4),melting temperature shift,[2],0.628 °C
PEX5 (UniProt P50542),melting temperature shift,[1],7.94 °C
BOP1 (UniProt Q14137),melting temperature shift,[1],0.472 °C
same,melting temperature shift,[2],1.83 °C
HDGFRP2 (UniProt Q7Z4V5),melting temperature shift,[1],-3.27 °C
PTP4A2 (UniProt Q12974),melting temperature shift,[1],-0.647 °C
same,melting temperature shift,[2],-2.01 °C
POLR3E (UniProt Q9NVU0),melting temperature shift,[1],0.872 °C
UniProt Q9BXX3,melting temperature shift,[2],-0.753 °C
AASDHPPT (UniProt Q9NRN7),melting temperature shift,[1],-0.37 °C
same,melting temperature shift,[2],-0.0584 °C
PAXIP1 (UniProt Q6ZW49),melting temperature shift,[1],0.526 °C
RSRC2 (UniProt Q7L4I2),melting temperature shift,[1],-0.572 °C
THEM4 (UniProt Q5T1C6),melting temperature shift,[1],0.456 °C
same,melting temperature shift,[2],-0.553 °C
EXOC1 (UniProt Q9NV70),melting temperature shift,[1],-1.16 °C
same,melting temperature shift,[2],-0.0174 °C
DNAJC13 (UniProt O75165),melting temperature shift,[1],0.407 °C
same,melting temperature shift,[2],0.491 °C
UniProt O95837,melting temperature shift,[2],-0.251 °C
EEF1B2 (UniProt P24534),melting temperature shift,[2],0.245 °C
SLC2A1 (UniProt P11166),melting temperature shift,[1],2.5 °C
ALG1 (UniProt Q9BT22),melting temperature shift,[1],1.07 °C
same,melting temperature shift,[2],-2.6 °C
DDX39B (UniProt Q13838),melting temperature shift,[1],0.19 °C
same,melting temperature shift,[2],0.165 °C
DPM1 (UniProt O60762),melting temperature shift,[1],0.788 °C
same,melting temperature shift,[2],-0.822 °C
UniProt Q6P474,melting temperature shift,[2],-0.791 °C
OSBP (UniProt P22059),melting temperature shift,[1],-1.4 °C
same,melting temperature shift,[2],-0.591 °C
UniProt A6NKH3,melting temperature shift,[2],-1.28 °C
NFXL1 (UniProt Q6ZNB6),melting temperature shift,[1],-0.585 °C
same,melting temperature shift,[2],0.287 °C
UniProt Q8IUH3,melting temperature shift,[1],0.998 °C
UniProt Q9H8G2,melting temperature shift,[1],2.58 °C
SPECC1 (UniProt Q5M775),melting temperature shift,[1],0.903 °C
same,melting temperature shift,[2],0.246 °C
MTCH1 (UniProt Q9NZJ7),melting temperature shift,[1],-0.0428 °C
same,melting temperature shift,[2],-0.379 °C
CWC22 (UniProt Q9HCG8),melting temperature shift,[1],-0.589 °C
same,melting temperature shift,[2],0.69 °C
EPHA2 (UniProt P29317),melting temperature shift,[1],1.91 °C
same,melting temperature shift,[2],0.0953 °C
GSS (UniProt P48637),melting temperature shift,[1],-1.18 °C
same,melting temperature shift,[2],-0.824 °C
UniProt Q969M1,melting temperature shift,[1],0.372 °C
C1ORF123 (UniProt Q9NWV4),melting temperature shift,[1],3.71 °C
same,melting temperature shift,[2],0.433 °C
HNRNPAB (UniProt Q99729),melting temperature shift,[1],-0.0274 °C
same,melting temperature shift,[2],0.395 °C
GIGYF2 (UniProt Q6Y7W6),melting temperature shift,[1],-0.381 °C
same,melting temperature shift,[2],-0.14 °C
ABHD12 (UniProt Q8N2K0),melting temperature shift,[1],-0.406 °C
same,melting temperature shift,[2],-0.382 °C
TAB2 (UniProt Q9NYJ8),melting temperature shift,[1],-0.944 °C
same,melting temperature shift,[2],1.02 °C
UniProt Q96JB8,melting temperature shift,[1],0.444 °C
RPLP0 (UniProt P05388),melting temperature shift,[1],-0.451 °C
same,melting temperature shift,[2],1.33 °C
TXLNA (UniProt P40222),melting temperature shift,[1],-1.29 °C
same,melting temperature shift,[2],0.155 °C
BZW1 (UniProt Q7L1Q6),melting temperature shift,[1],-0.705 °C
TLE3 (UniProt Q04726),melting temperature shift,[1],-0.157 °C
same,melting temperature shift,[2],0.312 °C
TCF25 (UniProt Q9BQ70),melting temperature shift,[1],-0.297 °C
RPL28 (UniProt P46779),melting temperature shift,[1],0.736 °C
same,melting temperature shift,[2],-0.621 °C
EIF2B1 (UniProt Q14232),melting temperature shift,[1],-1.2 °C
same,melting temperature shift,[2],0.476 °C
UniProt O43502,melting temperature shift,[2],1.42 °C
UniProt Q9P2L0,melting temperature shift,[1],0.817 °C
H2AFX (UniProt P16104),melting temperature shift,[2],-0.0251 °C

# Rewritten with bars between the fields: part of the list above.
target | measurement | setting | value
SSB (UniProt P05455) | melting temperature shift | [2] | 0.0869 °C
MKL2 (UniProt Q9ULH7) | melting temperature shift | [1] | -4.33 °C
AASDHPPT (UniProt Q9NRN7) | melting temperature shift | [2] | -0.0584 °C
RSRC2 (UniProt Q7L4I2) | melting temperature shift | [1] | -0.572 °C
OSBP (UniProt P22059) | melting temperature shift | [2] | -0.591 °C
UniProt Q9H8G2 | melting temperature shift | [1] | 2.58 °C
